Measurements as given in patent publication US9145555B2, “Integrated—ligand-responsive microRNAs” (California Institute of Technology, priority 2009, dated 2015).
Some of these results come from one statement about several compounds together.

Test system: targeted GFP transcript
Test: Self-targeting miRNA circuit, GFP levels in stable 293-Flp-In cells (flow cytometry, time course)
Assay type: cell-based, human
Settings: single or four copies; for time to steady-state GFP levels in the presence of theophylline: 1.5 mM theophylline; for time for GFP levels to return to original levels after removal of theophylline: growth in the absence of theophylline
Text: Ligand-responsive miRNAs can regulate genes in trans through RISC targeting and in cis through Drosha cleavage. A control system based on combining both modes of regulation into ‘self-targeting miRNAs’ may offer tighter regulation while still operating within the 3′ UTR of the transgene encoding transcript. We developed a dual-acting miRNA circuit based on the insertion of ligand-responsive miRNAs or miRNA clusters into the 3′ UTR of a targeted GFP transcript (FIG. 6A), where ligand control of Drosha cleavage is expected to impact direct destabilization of the cleaved transcript and subsequent RISC-mediated inactivation of other target transcripts. The resulting constructs were stably integrated into 293-Flp-In cells to ensure consistent expression for all constructs.
We performed time course studies on the dual-acting miRNA circuits to examine the dynamic properties of these regulatory systems. Cells lines were grown in the presence of theophylline for six days and then grown in media without theophylline for another six days. […] The particular response dynamics associated with the cis and cis/trans regulatory mechanisms offer yet another design parameter when specifying the regulatory performance of ligand-responsive miRNAs.
Stable transfection of 293-Flp-In cell lines was performed using the Flp-In recombinase system (Invitrogen) according to the manufacturer's instructions to generate isogenic stable cell lines. Integrants were selected using 200 μg/ml hygromycin B (Invitrogen), whereas stable cell lines were maintained in 50 μg/ml hygromycin B. The procedure described above for the fluorescence expression analysis of transiently transfected cell populations was used to analyze the stable cell lines with notable exceptions. Normalization of flow cytometry data to untransfected cells was not performed as all cells express the integrated construct, and all data was normalized to cells lacking a miRNA and grown in the absence of theophylline. Normalization to cells grown under the same conditions was not performed since theophylline differentially affected the two negative controls: no miRNA and a self-targeting miRNA lacking the theophylline aptamer.

Molecule	time to steady-state GFP levels in the presence of theophylline	time for GFP levels to return to original levels after removal of theophylline
th1: SEQ ID NO. 23; GFP-targeting miRNA with a theophylline aptamer in the basal segments (nucleic acid, expressed or natural sequence, 23; GFP-targeting miRNA with a theophylline aptamer in the basal segments) TCTAGAACGGGTCCTGATACCAGCGTGAGCGAGCACAAGCTGGAGTACAACTATAGTGAAGCCACAGATGTATAGTTGTACTCCAGCTTGTGCCCGCCTACGCCCTTGGCAGCAGGGCCC	≤ 6 days	4 to 6 days
th1′: SEQ ID NO. 24; theophylline-responsive non-targeting miRNA, scrambled mature miRNA sequence (nucleic acid) TCTAGAACGGGTCCTGATACCAGCGTGAGCGAGCACAAGCTATCAACATGAGGTAGTGAAGCCACAGATGTACCTCATGTTGATAGCTTGTGCCCGCCTACGCCCTTGGCAGCAGGGCCC	≤ 6 days	4 to 6 days
